Results deposited as PubChem BioAssay AID1053208 (Peter MacCallum Cancer Centre, 2014).
Aim: 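Synthetic lethal interactions between gene loss and doxorubicin in osteosarcoma cells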 (primary screen). Cell system: mouse osteosarcoma cells, early-passage culture from an engineered mouse model of fibroblastic bone tumour. Reagents: siRNA pool against mouse genes, 40 nM. Timing: about 120 h (48 h before drug, then 72 h with drug). Challenge: doxorubicin 100 nM for 72 h, roughly 30-40% inhibitory dose. Measurement: 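Viability read as ATP luminescence after 72 h of 100 nM doxorubicin or none, duplicate wells averaged, scaled to non-targeting siRNA, then expressed as robust z-scores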. Reading the numbers: viability z-score with doxorubicin and doxorubicin viability vs non-targeting: higher = more viable cells under doxorubicin; viability z-score without drug: higher = more viable cells with knock-down alone; z-score of drug to no-drug ratio: higher = less drug sensitisation by knock-down. Hit rule: 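a pool counts as active when its viability z-score with doxorubicin is -2 or below and its z-score without drug lies between -2 and 2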.
Shown is one part, drawn at random, of about 17,000 reagents. 788 of all reagents (4.7%) were called active. 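Calls rest on z-score classes alone; an extra cut-off of viability at most 70% of control was not applied to them.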 Entries without a mark were called inactive.

gene | combined z-score class | viability z-score with doxorubicin | viability z-score without drug | z-score of drug to no-drug ratio | doxorubicin viability vs non-targeting
Rhd (Rh blood group, D antigen) | no change with or without drug | -0.22 | 0.34 | -0.34 | 0.92
L1cam (L1 cell adhesion molecule) | no change with or without drug | -0.9 | 0.34 | -1.01 | 0.86
Clec5a (C-type lectin domain family 5, member a) | no change with or without drug | -0.9 | -0.51 | -0.56 | 0.86
Cdc27 (cell division cycle 27) | low cell count with doxorubicin only (active) | -2.7 | -1.18 | -2.02 | 0.7
Or52b3 (olfactory receptor family 52 subfamily B member 3) | no change with or without drug | -1.57 | -0.17 | -1.46 | 0.8
Dennd2c (DENN domain containing 2C) | low cell count without drug only | 0.34 | -6.91 | 9.22 | 0.97
Rpl39l (ribosomal protein L39-like) | no change with or without drug | -1.12 | 0.51 | -1.35 | 0.84
Bsnd (barttin CLCNK type accessory beta subunit) | no change with or without drug | 0 | -0.84 | 0.67 | 0.94
Dffa (DNA fragmentation factor, alpha subunit) | no change with or without drug | 0.56 | -0.51 | 1.12 | 0.99
Rpl5 (ribosomal protein L5) | low cell count with and without drug | -6.07 | -5.73 | -3.6 | 0.4
Scgb1b2 (secretoglobin, family 1B, member 2) | no change with or without drug | 1.12 | 1.35 | 0.34 | 1.04
Drc2 (dynein regulatory complex subunit 2) | no change with or without drug | 1.12 | 0.84 | 0.67 | 1.04
Cwc22 (CWC22 spliceosome-associated protein) | low cell count with and without drug | -3.04 | -2.87 | -1.35 | 0.67
Vipas39 | no change with or without drug | 0.67 | 0.84 | 0.22 | 1
Qtman (queuosine-tRNA mannosyltransferase) | high without drug; low with doxorubicin | -2.02 | 2.19 | -3.15 | 0.76
Evi5 (ecotropic viral integration site 5) | no change with or without drug | 0.22 | 1.52 | -0.67 | 0.96
Mfsd8 (major facilitator superfamily domain containing 8) | no change with or without drug | 0.9 | 0.34 | 0.79 | 1.02
Napa | low cell count with and without drug | -6.07 | -5.9 | -3.48 | 0.4
Or6z7 (olfactory receptor family 6 subfamily Z member 7) | no change with or without drug | -0.9 | -0.84 | -0.22 | 0.86
Plekha6 (pleckstrin homology domain containing A6) | no change with or without drug | -1.57 | 1.18 | -2.25 | 0.8
Mavs (mitochondrial antiviral signaling protein) | no change with or without drug | 0.22 | 0 | 0.34 | 0.96
Dnajc28 (DnaJ heat shock protein family (Hsp40) member C28) | no change with or without drug | 1.57 | 0 | 1.8 | 1.08
Stk10 (serine/threonine kinase 10) | no change with or without drug | 0.9 | -1.35 | 2.14 | 1.02
Snx33 (sorting nexin 33) | no change with or without drug | -0.67 | -0.51 | -0.22 | 0.88
A630052C17Rik (RIKEN cDNA A630052C17 gene) | no change with or without drug | 0.56 | 1.35 | -0.22 | 0.99

Hits (from the list above):
gene | combined z-score class | viability z-score with doxorubicin | viability z-score without drug | z-score of drug to no-drug ratio | doxorubicin viability vs non-targeting
Cdc27 (cell division cycle 27) | low cell count with doxorubicin only (active) | -2.7 | -1.18 | -2.02 | 0.7

The list goes on.
gene | combined z-score class | viability z-score with doxorubicin | viability z-score without drug | z-score of drug to no-drug ratio | doxorubicin viability vs non-targeting
Zpbp (zona pellucida binding protein) | no change with or without drug | 0.22 | 1.52 | -0.67 | 0.96
Msra (methionine sulfoxide reductase A) | no change with or without drug | 0.79 | -0.34 | 1.24 | 1.01
Cldn8 (claudin 8) | low cell count with doxorubicin only (active) | -2.25 | -1.52 | -1.35 | 0.74
Fam20a (FAM20A, golgi associated secretory pathway pseudokinase) | no change with or without drug | -0.67 | 0 | -0.56 | 0.88
Iyd (iodotyrosine deiodinase) | no change with or without drug | 1.57 | 0.51 | 1.35 | 1.08
Aldoc (aldolase C, fructose-bisphosphate) | no change with or without drug | 0.67 | -0.67 | 1.35 | 1
Kdm1b (lysine (K)-specific demethylase 1B) | no change with or without drug | 0.34 | -0.17 | 0.56 | 0.97
Mpped1 (metallophosphoesterase domain containing 1) | no change with or without drug | 0.9 | -1.35 | 2.14 | 1.02
Chst14 (carbohydrate sulfotransferase 14) | no change with or without drug | -0.9 | 1.01 | -1.46 | 0.86
Clec2h (C-type lectin domain family 2, member h) | no change with or without drug | -1.8 | -0.84 | -1.24 | 0.78
Ddx51 (DEAD box helicase 51) | low cell count without drug only | -1.8 | -3.04 | 0.34 | 0.78
Smco1 (single-pass membrane protein with coiled-coil domains 1) | no change with or without drug | -0.22 | 0.51 | -0.45 | 0.92
Or4a66 (olfactory receptor family 4 subfamily A member 66) | no change with or without drug | 0 | 0.84 | -0.45 | 0.94
Slc2a5 | no change with or without drug | 0.67 | 1.69 | -0.34 | 1
Ulk1 (unc-51 like kinase 1) | no change with or without drug | -0.79 | 0.84 | -1.24 | 0.87
Camkk1 (calcium/calmodulin-dependent protein kinase kinase 1, alpha) | no change with or without drug | -0.67 | -1.18 | 0.22 | 0.88
Ptpn4 (protein tyrosine phosphatase, non-receptor type 4) | no change with or without drug | 0.9 | -0.17 | 1.24 | 1.02
Oser1 (oxidative stress responsive serine rich 1) | no change with or without drug | -1.69 | -1.01 | -1.01 | 0.79
D630028G08Rik (RIKEN cDNA D630028G08 gene) | low cell count with doxorubicin only (active) | -2.14 | 1.69 | -3.04 | 0.75
Or5a3 (olfactory receptor family 5 subfamily A member 3) | no change with or without drug | -0.22 | -1.69 | 1.12 | 0.92
Sstr4 (somatostatin receptor 4) | no change with or without drug | 1.57 | -0.17 | 1.91 | 1.08
Cox7c (cytochrome c oxidase subunit 7C) | no change with or without drug | 0 | 0.17 | 0 | 0.94
Fut7 (fucosyltransferase 7) | no change with or without drug | 0.22 | 1.18 | -0.45 | 0.96
Gli3 (GLI-Kruppel family member GLI3) | no change with or without drug | 0 | -0.17 | 0.22 | 0.94
Nbr1 (NBR1, autophagy cargo receptor) | no change with or without drug | 0.56 | -1.85 | 2.25 | 0.99
B3galnt2 | no change with or without drug | -0.22 | -0.34 | 0.11 | 0.92
Arl6ip4 (ADP-ribosylation factor-like 6 interacting protein 4) | no change with or without drug | -0.67 | 0.34 | -0.79 | 0.88
Hsd17b2 (hydroxysteroid (17-beta) dehydrogenase 2) | no change with or without drug | -1.01 | -1.69 | 0.22 | 0.85
Coa3 (cytochrome C oxidase assembly factor 3) | no change with or without drug | -0.67 | -1.18 | 0.22 | 0.88
Slc6a3 | no change with or without drug | -0.45 | 1.18 | -1.12 | 0.9
Bin1 (bridging integrator 1) | no change with or without drug | 1.8 | 1.85 | 0.67 | 1.1
Slc8b1 | no change with or without drug | 0.22 | -0.17 | 0.45 | 0.96
Or51a42 (olfactory receptor family 51 subfamily A member 42) | no change with or without drug | 0.45 | 0.17 | 0.45 | 0.98
C1s1 (complement component 1, s subcomponent 1) | no change with or without drug | 1.01 | 0.84 | 0.56 | 1.03
Myh9 (myosin, heavy polypeptide 9, non-muscle) | no change with or without drug | 0.67 | -0.84 | 1.46 | 1
Slc12a8 | high cell count with and without drug | 2.25 | 2.87 | 0.45 | 1.14
Sucnr1 (succinate receptor 1) | no change with or without drug | 1.46 | 0.51 | 1.24 | 1.07
Ddx20 (DEAD box helicase 20) | no change with or without drug | -0.9 | -0.17 | -0.79 | 0.86
